The supplement of paper PMC10849652
The list shows a part of the results.

Chains of the proteins cited; added tags and fusions are not shown. Lines headed by an entry give the natural chain unless they say otherwise; changes in a name come on top.
UniProt P52732: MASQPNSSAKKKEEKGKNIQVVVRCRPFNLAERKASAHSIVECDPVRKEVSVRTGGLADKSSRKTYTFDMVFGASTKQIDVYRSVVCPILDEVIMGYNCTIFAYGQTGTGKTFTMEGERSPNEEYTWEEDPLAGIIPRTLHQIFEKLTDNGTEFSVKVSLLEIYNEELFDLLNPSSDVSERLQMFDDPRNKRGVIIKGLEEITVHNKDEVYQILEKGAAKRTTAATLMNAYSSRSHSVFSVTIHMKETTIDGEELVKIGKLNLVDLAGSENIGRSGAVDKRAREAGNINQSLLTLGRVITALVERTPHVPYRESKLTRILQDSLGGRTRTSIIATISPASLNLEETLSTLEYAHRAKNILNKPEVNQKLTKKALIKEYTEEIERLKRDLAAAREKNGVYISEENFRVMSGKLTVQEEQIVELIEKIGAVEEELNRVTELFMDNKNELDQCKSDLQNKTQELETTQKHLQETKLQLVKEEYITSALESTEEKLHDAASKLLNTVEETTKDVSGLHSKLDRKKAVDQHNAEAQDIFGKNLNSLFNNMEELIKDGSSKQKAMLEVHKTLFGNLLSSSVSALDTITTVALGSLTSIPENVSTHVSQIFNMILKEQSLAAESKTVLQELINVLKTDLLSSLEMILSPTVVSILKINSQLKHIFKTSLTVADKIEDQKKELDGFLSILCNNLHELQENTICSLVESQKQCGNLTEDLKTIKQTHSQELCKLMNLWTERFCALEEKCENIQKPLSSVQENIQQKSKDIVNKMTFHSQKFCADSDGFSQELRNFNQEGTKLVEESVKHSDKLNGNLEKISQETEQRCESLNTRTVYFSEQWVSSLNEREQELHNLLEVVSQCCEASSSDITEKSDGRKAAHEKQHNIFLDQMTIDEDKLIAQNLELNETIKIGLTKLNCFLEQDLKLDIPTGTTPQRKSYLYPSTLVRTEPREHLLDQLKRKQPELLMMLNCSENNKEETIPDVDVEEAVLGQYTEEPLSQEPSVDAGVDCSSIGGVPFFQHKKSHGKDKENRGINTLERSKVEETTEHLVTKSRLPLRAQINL
UniProt Q9BVG8: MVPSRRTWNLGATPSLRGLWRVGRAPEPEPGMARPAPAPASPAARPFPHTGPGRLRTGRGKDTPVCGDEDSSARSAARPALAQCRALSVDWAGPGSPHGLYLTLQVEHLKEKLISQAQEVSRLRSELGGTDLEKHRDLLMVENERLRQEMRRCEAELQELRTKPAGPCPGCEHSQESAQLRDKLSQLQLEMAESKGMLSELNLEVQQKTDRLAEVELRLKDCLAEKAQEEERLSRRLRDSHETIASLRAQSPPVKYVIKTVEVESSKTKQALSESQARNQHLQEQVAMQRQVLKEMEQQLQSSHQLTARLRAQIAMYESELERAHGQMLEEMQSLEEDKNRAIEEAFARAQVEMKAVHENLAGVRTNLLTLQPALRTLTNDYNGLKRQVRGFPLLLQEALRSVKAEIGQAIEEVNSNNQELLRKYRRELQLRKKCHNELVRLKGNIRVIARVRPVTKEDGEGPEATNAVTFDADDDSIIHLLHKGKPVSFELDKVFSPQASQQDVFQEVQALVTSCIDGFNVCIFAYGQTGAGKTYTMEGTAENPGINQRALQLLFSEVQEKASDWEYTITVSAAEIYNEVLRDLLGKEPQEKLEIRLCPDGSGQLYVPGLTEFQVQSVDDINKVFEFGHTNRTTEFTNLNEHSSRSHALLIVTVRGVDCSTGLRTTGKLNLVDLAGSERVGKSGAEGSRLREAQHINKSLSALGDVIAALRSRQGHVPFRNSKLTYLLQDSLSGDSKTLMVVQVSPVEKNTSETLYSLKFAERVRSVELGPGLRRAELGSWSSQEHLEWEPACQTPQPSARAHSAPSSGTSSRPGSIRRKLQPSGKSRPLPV
UniProt Q9ULH0: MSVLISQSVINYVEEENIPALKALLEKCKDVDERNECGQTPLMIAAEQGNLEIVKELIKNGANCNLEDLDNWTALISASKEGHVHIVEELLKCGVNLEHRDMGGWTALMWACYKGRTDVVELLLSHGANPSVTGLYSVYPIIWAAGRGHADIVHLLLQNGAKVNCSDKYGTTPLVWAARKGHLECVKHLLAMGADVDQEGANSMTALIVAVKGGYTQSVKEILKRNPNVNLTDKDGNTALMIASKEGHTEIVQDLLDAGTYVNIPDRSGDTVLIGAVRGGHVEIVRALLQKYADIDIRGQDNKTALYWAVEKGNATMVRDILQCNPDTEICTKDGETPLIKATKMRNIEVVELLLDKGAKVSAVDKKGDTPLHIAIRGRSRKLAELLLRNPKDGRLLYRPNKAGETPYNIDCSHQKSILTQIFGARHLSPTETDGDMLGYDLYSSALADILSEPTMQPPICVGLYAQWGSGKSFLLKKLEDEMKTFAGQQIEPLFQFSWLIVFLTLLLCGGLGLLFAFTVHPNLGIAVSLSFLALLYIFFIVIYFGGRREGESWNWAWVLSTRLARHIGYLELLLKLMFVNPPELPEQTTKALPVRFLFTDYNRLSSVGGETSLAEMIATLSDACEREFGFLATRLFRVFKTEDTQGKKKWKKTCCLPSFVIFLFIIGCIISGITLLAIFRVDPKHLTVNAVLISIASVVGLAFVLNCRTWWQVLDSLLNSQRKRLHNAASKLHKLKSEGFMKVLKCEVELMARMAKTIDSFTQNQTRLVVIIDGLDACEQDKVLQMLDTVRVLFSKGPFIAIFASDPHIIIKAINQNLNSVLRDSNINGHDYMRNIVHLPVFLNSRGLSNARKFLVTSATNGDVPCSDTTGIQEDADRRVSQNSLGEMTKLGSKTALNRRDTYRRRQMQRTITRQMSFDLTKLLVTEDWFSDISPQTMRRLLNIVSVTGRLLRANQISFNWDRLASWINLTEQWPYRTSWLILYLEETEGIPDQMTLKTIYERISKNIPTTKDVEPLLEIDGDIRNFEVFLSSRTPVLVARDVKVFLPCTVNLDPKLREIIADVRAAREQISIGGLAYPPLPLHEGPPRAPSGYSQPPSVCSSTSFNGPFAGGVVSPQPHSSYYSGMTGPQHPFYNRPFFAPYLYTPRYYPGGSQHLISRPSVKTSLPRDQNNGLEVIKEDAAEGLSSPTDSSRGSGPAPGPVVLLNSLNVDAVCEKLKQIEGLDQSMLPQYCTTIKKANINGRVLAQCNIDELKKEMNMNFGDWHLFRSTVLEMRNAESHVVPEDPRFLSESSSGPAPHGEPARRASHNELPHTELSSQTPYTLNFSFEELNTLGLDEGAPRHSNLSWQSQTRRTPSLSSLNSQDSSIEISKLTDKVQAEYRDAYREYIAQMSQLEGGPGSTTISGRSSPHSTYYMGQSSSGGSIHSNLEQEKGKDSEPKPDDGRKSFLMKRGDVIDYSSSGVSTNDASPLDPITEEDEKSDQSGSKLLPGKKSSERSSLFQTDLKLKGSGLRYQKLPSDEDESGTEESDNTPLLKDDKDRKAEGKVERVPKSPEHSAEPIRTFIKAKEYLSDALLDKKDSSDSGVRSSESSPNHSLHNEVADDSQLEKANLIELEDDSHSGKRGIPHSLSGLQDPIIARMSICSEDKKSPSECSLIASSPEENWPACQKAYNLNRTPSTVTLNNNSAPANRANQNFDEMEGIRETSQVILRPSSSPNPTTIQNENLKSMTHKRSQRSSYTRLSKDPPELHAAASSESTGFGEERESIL
UniProt Q9BW19: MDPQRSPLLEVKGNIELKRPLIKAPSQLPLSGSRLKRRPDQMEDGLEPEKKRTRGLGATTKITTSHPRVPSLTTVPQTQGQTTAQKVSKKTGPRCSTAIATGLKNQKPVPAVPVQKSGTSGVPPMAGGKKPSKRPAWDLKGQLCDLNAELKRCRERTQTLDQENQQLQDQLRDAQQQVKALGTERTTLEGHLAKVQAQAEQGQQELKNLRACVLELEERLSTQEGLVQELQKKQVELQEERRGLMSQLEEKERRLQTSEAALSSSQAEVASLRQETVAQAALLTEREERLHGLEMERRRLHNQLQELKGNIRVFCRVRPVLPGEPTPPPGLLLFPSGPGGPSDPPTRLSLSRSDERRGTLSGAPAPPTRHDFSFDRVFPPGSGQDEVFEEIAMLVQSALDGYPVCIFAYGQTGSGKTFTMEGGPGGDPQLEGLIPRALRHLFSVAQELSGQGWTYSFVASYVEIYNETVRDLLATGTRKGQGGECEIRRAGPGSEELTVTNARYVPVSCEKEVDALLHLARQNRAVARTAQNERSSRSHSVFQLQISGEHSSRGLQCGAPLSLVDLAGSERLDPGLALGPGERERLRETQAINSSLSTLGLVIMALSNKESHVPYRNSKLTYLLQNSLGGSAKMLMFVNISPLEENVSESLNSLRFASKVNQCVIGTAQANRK
UniProt Q8IVT5: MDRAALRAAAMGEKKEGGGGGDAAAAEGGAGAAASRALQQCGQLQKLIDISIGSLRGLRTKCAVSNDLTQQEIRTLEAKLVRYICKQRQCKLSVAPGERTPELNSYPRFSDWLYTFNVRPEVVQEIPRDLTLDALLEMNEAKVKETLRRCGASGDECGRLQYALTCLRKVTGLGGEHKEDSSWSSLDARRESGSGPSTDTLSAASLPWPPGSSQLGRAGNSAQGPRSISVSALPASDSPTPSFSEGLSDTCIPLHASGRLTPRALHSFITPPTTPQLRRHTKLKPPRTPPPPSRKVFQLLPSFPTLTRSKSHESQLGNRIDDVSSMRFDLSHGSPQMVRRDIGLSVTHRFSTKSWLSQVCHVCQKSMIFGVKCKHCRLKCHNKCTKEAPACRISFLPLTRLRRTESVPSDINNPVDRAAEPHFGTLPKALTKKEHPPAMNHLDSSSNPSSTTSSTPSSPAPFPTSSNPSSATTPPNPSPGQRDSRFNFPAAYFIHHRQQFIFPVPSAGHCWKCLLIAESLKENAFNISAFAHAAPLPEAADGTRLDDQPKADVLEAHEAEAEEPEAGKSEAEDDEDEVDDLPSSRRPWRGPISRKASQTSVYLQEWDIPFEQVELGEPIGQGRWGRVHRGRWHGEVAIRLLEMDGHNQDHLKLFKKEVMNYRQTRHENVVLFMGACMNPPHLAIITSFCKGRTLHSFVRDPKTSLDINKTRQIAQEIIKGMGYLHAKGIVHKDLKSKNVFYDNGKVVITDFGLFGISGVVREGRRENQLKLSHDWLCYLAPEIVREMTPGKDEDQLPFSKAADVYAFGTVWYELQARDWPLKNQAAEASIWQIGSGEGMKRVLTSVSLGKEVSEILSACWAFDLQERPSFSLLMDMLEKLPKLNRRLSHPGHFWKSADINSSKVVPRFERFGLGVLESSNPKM
UniProt Q14657: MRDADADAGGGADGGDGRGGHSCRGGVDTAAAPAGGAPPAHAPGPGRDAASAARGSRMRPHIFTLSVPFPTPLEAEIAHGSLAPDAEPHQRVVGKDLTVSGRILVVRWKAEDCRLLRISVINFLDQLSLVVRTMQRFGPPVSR
UniProt Q53HC5: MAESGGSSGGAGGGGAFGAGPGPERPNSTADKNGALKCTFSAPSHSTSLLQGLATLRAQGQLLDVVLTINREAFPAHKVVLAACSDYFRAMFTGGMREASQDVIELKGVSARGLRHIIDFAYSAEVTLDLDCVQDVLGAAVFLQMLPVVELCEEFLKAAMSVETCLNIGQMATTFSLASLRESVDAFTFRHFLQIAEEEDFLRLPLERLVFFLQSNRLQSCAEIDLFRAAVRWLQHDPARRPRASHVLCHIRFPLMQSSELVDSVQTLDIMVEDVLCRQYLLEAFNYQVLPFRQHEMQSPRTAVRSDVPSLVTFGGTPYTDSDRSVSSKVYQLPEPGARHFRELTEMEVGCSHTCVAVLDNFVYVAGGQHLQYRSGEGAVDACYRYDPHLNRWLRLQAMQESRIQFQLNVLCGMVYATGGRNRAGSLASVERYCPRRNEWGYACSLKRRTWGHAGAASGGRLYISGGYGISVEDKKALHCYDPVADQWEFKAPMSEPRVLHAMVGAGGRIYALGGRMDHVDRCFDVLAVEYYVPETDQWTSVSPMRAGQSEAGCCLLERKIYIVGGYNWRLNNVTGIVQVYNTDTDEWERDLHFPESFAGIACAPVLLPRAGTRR
UniProt Q6P597: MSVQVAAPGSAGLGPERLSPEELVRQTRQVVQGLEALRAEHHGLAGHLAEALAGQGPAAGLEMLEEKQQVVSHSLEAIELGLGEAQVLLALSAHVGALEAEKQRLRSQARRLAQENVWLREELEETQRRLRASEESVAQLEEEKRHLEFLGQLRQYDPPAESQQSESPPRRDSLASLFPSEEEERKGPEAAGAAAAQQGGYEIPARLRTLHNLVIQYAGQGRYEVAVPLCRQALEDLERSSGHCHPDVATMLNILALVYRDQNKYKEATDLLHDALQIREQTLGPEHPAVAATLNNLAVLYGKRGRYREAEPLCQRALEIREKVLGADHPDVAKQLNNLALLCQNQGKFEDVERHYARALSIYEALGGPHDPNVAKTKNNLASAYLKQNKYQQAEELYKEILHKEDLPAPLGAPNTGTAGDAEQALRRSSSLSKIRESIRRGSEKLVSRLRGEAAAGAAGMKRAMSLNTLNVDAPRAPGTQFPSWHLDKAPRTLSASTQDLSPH

Assays:
Assay in all cases: log2 fold change, soluble protein after heating vs DMSO (PISA); higher = thermal stabilisation; K562 lysate, 10 uM; active = over 0.2 and 3.5 SD of the protein, either way, in both replicates (recomputed)
[1] = compound: NCC(=O)Nc1ccc(-n2nc(C(F)(F)F)cc2-c2ccc3c(ccc4ccccc43)c2)cc1
Summary of the method: (§1)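 K562 pellets were dounce-homogenised in PBS pH 7.4 with 1 mM MgCl2, and the crude extract at 1 mg/mL protein was treated with 10 μM compound for 30 min. Aliquots were heated for 3 min across 48°C-58°C, pooled, and brought to 0.5% NP-40 at 4°C; soluble protein was the supernatant after 21,000xg for 90 min. Soluble protein was quantified by TMTpro 16plex LC-MS/MS with channel sums equalised, and reported as log2 fold change in thermal stability against DMSO controls, with values from duplicates.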

vorinostat = compound: O=C(CCCCCCC(=O)Nc1ccccc1)NO [vorinostat]
Summary of the method: as §1

silmitasertib = compound: O=C(O)c1ccc2c(c1)nc(Nc1cccc(Cl)c1)c1ccncc12 [silmitasertib]
Summary of the method: as §1

[2] = compound: O=C1NC(=O)C(c2cnc3ccccn23)=C1c1cn2c3c(cc(F)cc13)CN(C(=O)N1CCCCC1)CC2
Summary of the method: as §1

entospletinib = compound: c1cn2cc(-c3ccc4cn[nH]c4c3)nc(Nc3ccc(N4CCOCC4)cc3)c2n1 [entospletinib]
Summary of the method: as §1

Measured: log2 fold change

KLHDC10 (UniProt Q6PID8)
inactive: [1] -0.008 | vorinostat -0.077 | silmitasertib -0.146 | [2] -0.014 | entospletinib 0.108

KIF3C (UniProt O14782)
inactive: vorinostat -0.352 | silmitasertib 0.249 | [2] 0.074 | entospletinib 0.032
active: [1] 1.17

KLHL36 (UniProt Q8N4N3)
inactive: [1] 0.059 | vorinostat -0.161 | silmitasertib 0.082 | [2] -0.037 | entospletinib -0.006

KIF11 (UniProt P52732)
active: vorinostat -0.252
inactive: [1] -0.013 | silmitasertib 0.016 | [2] -0.033 | entospletinib 0.001

KHNYN (UniProt O15037)
inactive: [1] 0.063 | vorinostat -0.528 | silmitasertib -0.085 | [2] -0.044 | entospletinib 0.048

KIFC3 isoform 6 (UniProt Q9BVG8)
inactive: [1] 0.03 | vorinostat -0.025 | silmitasertib -0.124 | [2] 0.119 | entospletinib -0.063

KYAT3 (UniProt Q6YP21)
inactive: [1] -0.017 | vorinostat 0.107 | silmitasertib -0.022 | [2] 0.036 | entospletinib -0.008

KIF3A (UniProt Q9Y496)
inactive: [1] 0.076 | vorinostat -0.094 | silmitasertib 0.036 | [2] 0.137 | entospletinib -0.044

KIF13B (UniProt Q9NQT8)
inactive: [1] -0.009 | vorinostat -0.265 | silmitasertib 0.019 | [2] -0.081 | entospletinib -0.02

KIDINS220 isoform 4 (UniProt Q9ULH0)
inactive: [1] -0.012 | vorinostat -0.111 | silmitasertib 0.023 | [2] 0.031 | entospletinib -0.02

KHDC4 (UniProt Q7Z7F0)
inactive: [1] -0.015 | vorinostat 0.038 | silmitasertib -0.054 | [2] -0.031 | entospletinib 0.013

LAMTOR5 (UniProt O43504)
inactive: [1] -0.092 | vorinostat 0.117 | silmitasertib -0.05 | [2] -0.158 | entospletinib -0.079

KLC2 (UniProt Q9H0B6)
active: vorinostat -0.348
inactive: [1] 0.01 | silmitasertib -0.005 | [2] -0.061 | entospletinib 0.034

KIFC1 (UniProt Q9BW19)
inactive: [1] 0.02 | silmitasertib 0.03 | [2] -0.04 | entospletinib -0.002
active: vorinostat -0.898

KIF26A (UniProt Q9ULI4)
inactive: [1] -0.01 | vorinostat -0.178 | silmitasertib 0.068 | [2] -0.016 | entospletinib 0.057

KSR1 (UniProt Q8IVT5)
active: vorinostat -0.49
inactive: [1] 0.029 | silmitasertib 0.081 | [2] 0.031 | entospletinib -0.025

KPNA4 (UniProt O00629)
inactive: [1] 0.006 | vorinostat 0.047 | silmitasertib 0.024 | [2] 0.02 | entospletinib 0.021

KLHL7 (UniProt Q8IXQ5)
inactive: [1] -0.185 | vorinostat -0.14 | silmitasertib -0.039 | [2] -0.056 | entospletinib -0.014

LAGE3 (UniProt Q14657)
inactive: [1] 0.045 | vorinostat -0.085 | silmitasertib -0.016 | [2] -0.041 | entospletinib -0.043

KIF1B isoform 2 (UniProt O60333)
inactive: [1] 0.022 | vorinostat -0.117 | silmitasertib 0.031 | [2] 0.008 | entospletinib 0.008

KNL1 (UniProt Q8NG31)
inactive: [1] 0.022 | silmitasertib -0.003 | [2] -0.009 | entospletinib -0.011
active: vorinostat -0.254

LAMTOR3 (UniProt Q9UHA4)
inactive: [1] 0.035 | vorinostat 0.123 | silmitasertib -0.004 | [2] 0.009 | entospletinib -0.008

KRTCAP2 isoform 2 (UniProt Q8N6L1)
inactive: [1] 0 | vorinostat 0.139 | silmitasertib -0.034 | [2] 0.052 | entospletinib 0.05

LARS (UniProt Q9P2J5)
active: vorinostat -0.399
inactive: [1] -0.021 | silmitasertib 0.052 | [2] -0.003 | entospletinib 0.012

KRI1 (UniProt Q8N9T8)
active: vorinostat -0.285
inactive: [1] 0.085 | silmitasertib -0.023 | [2] -0.007 | entospletinib -0.07

KIF5A (UniProt Q12840)
inactive: [1] -0.007 | vorinostat -0.132 | silmitasertib 0.033 | [2] -0.013 | entospletinib 0.022

KEAP1 (UniProt Q14145)
active: vorinostat -0.262
inactive: [1] -0.019 | silmitasertib -0.008 | [2] -0.022 | entospletinib 0.001

LACTB (UniProt P83111)
inactive: [1] 0.038 | vorinostat 0.011 | silmitasertib 0.01 | [2] -0.033 | entospletinib 0.059

KIF13A isoform 4 (UniProt Q9H1H9)
inactive: [1] 0 | vorinostat 0.033 | silmitasertib -0.013 | [2] -0.004 | entospletinib -0.034

KMT2A isoform 3 (UniProt Q03164)
inactive: [1] 0.046 | vorinostat 0.101 | silmitasertib 0.012 | [2] 0.066 | entospletinib -0.034

KTN1 (UniProt G3V5Q0)
inactive: [1] 0.039 | vorinostat -0.069 | silmitasertib -0.171 | entospletinib -0.119

KLHL26 (UniProt Q53HC5)
inactive: vorinostat -0.015 | silmitasertib 0.04 | [2] 0.02

KLC3 isoform 3 (UniProt Q6P597)
inactive: [2] 0.069 | entospletinib -0.132

Two consecutive entries from above:
KLHL26 (UniProt Q53HC5)
inactive: vorinostat -0.015 | silmitasertib 0.04 | [2] 0.02

KLC3 isoform 3 (UniProt Q6P597)
inactive: [2] 0.069 | entospletinib -0.132
